Assay results published in paper PMC11653243, “Enhancing Phototoxicity in BODIPY‐Perylene Charge Transfer Dyads by Combined Iodination and Mesylation” (Chemistry (Weinheim an Der Bergstrasse, Germany), 2024).

Legend:
MCF‐7 cells = test: Cellular uptake and co-localisation by confocal microscopy; format: cell-based; settings: for Pearson Coefficient (r) with BODIPY 493/503: BODIPY 493/503 2 µM, 30 min; for Pearson Coefficient (r) with LysoTracker Deep Red: LysoTracker Deep Red 100 nM, 1 h; for Pearson Coefficient (r) with PyLa-C17Cer: PyLa-C17Cer 2 µM, 2 hours
Procedure: (§1) The intracellular uptake of the BODIPY derivatives was assessed in two mammalian cell lines, CHO (non‐cancer) and MCF‐7 (cancer). […] B2P and B2PI were studied following 4 h and 17 h incubation in MCF‐7 cells with 10 μM of each BODIPY derivative. A 17 h incubation was selected to allow for adequate cell uptake of the complex, ensuring sufficient brightness for confocal imaging while minimising cell toxicity.
(§2) Across all four compounds uptake of the BODIPYs led to extremely bright and highly punctate staining from within the cells. As all of the BODIPY‐perylene probes emit minimally from aqueous media including cell culture media (Figure S20) the bright emission is attributed to localisation of the complex to non‐aqueous domains, i. e. organelle membranes or to lipid droplets (LDs). To identify which, co‐localisation studies with targeted probes were completed. CHO and MCF‐7 cells were treated with B2P, B2PI, MB2P or MB2PI and co‐stained with specific organelle markers including LD probes; PyLa−C17Cer and BODIPY 493/503, an endoplasmic reticulum stain; ER Tracker Blue‐White and a lysosomal stain; LysoTracker Deep Red. Pyla‐C17Cer was previously published and localises in both the ER and LDs.[41] Cellular uptake of B2PI was recently reported in MCF‐7 cells, though localisation was not explored.[25]
(§3) MCF‐7 and CHO cells were treated with B2P, MB2P, B2PI or MB2PI for 17 h and co‐stained with a number of dyes for co‐staining including LysoTracker Deep Red, ER Tracker Blue/White, PyLa−C17Cer, BODIPY 493/503 and H2DCFDA. Cells were imaged in phenol red free media using a Leica DMi8 confocal microscope with a 63x or 100x oil immersion lens and a heated state at 37 °C.
(§4) Uptake in Live Cell Monolayers
(§5) CHO cells were incubated in 75cm2 cell culture flasks (Corning) with DMEM/F-12 Ham medium (Sigma-Aldrich) with L-glutamine and sodium bicarbonate supplemented with 10% fetal bovine serum (FBS) (Gibco) and 1% penicillin-streptomycin (Sigma-Aldrich). MCF-7 cells were incubated in 25cm2 cell culture flasks with RPMI-1640 medium (Sigma-Aldrich) with L-glutamine and sodium bicarbonate supplemented with 10% fetal bovine serum (FBS, Gibco) and 1% penicillin-streptomycin. Cells were incubated at 37 °C with 5% CO2 and detached from the flask at 90% confluency using a 1X Trypsin-EDTA solution (Sigma-Aldrich). Cells were counted using the EVE automated cell counter (NanoEnTek) and seeded at 1 x 10^5 cells per mL in a 4 or 8 chamber µ-slide (ibidi) for cell imaging and left for 24 h at 37 °C. Cells were rinsed with 1X PBS (Gibco) and stained with B2P or B2PI at 10 µM and MB2P or MB2PI at 30 µM for 17 h. Cells were washed twice with PBS and covered with phenol red free RPMI medium (Gibco) for imaging. Live cells were imaged using a Leica SP8 confocal microscope with 63x oil immersion lens and heated stage at 37 °C.
(§6) Figure S23. Confocal imaging of 10 µM B2P in MCF-7 cells after (A-C) 4 and (D-F) 17 h […]
(§7) (1 picture or pasted object on this page, not shown here)
(§8) Figure S24. Confocal imaging of 10 µM B2PI in MCF-7 cells after (A-C) 4 and (D-F) 17 h […]
(§9) Localisation in Live Cell Monolayers
(§10) For co-localisation studies, LysoTracker Deep Red, ER Tracker Blue-White, PyLa-C17Cer or BODIPY 493/503 were added to CHO and MCF-7 cells after the 17 h incubation period with the BODIPY probes. Cells were washed twice with PBS and imaged in phenol red free media.
(§11) The BODIPY-perylene compounds were excited at their respective λabs and emission for co-localisation studies was collected from 580-640 nm, where the emission collection window was shortened depending on the λem of the BODIPY derivative being tested to ensure minimal overlap with the commercial dyes. Moreover, images were obtained by sequential sequencing with gating applied. The conditions for co-localisation studies are as follows: LysoTracker Deep Red (100 nM, 1 h) Ex 647, Em 665-685 nm; ER Tracker Blue/White (1 µM, 45 minutes)

CHO cells = test: as above; format: cell-based, Chinese Hamster; settings: for Pearson Coefficient (r) with BODIPY 493/503 / Pearson Coefficient (r) with LysoTracker Deep Red / Pearson Coefficient (r) with PyLa-C17Cer: CHO; for Pearson Coefficient (r) with BODIPY 493/503: BODIPY 493/503 2 µM, 30 min; for Pearson Coefficient (r) with LysoTracker Deep Red: LysoTracker Deep Red 100 nM, 1 h; for Pearson Coefficient (r) with PyLa-C17Cer: PyLa-C17Cer 2 µM, 2 hours
Procedure: as §1, §2, §3, §4, §5, §6, §7, §8, §9, §10, §11

MCF‐7 spheroids = test: Uptake in spheroids by confocal imaging; format: cell-based; settings: 50 μM for 17 h

SMILES	Pearson Coefficient (r) with BODIPY 493/503 (MCF‐7 cells)	Pearson Coefficient (r) with LysoTracker Deep Red (MCF‐7 cells)	Pearson Coefficient (r) with PyLa-C17Cer (MCF‐7 cells)	Pearson Coefficient (r) with BODIPY 493/503 (CHO cells)	Pearson Coefficient (r) with LysoTracker Deep Red (CHO cells)	Pearson Coefficient (r) with PyLa-C17Cer (CHO cells)	penetration and distribution in spheroids (MCF‐7 spheroids)	Pearson's coefficient for LD probe (CHO cells; CHO cells, lipid droplet probe not specified)
CC1=CC(C)=[N+]2C1=C(c1ccccc1)c1c(C)c(-c3ccc4c5cccc6cccc(c7cccc3c74)c65)c(C)n1[B-]2(F)F [B2P]	0.75 ± 0.07	0.75 ± 0.11	0.55 ± 0.07	0.78 ± 0.09 and 0.69±0.03	0.34 ± 0.04	0.69 ± 0.03 and 0.78±0.09	widespread distribution	
CC1=C(c2ccc3c4cccc5cccc(c6cccc2c63)c54)C(C)=[N+]2C1=C(c1c(C)cc(C)cc1C)c1c(C)cc(C)n1[B-]2(F)F [MB2P]	0.66 ± 0.11	0.57 ± 0.06	0.67 ± 0.03	0.70 ± 0.03	0.59 ± 0.08	0.67 ± 0.09	not taken up throughout the spheroid as effectively as B2P and B2PI	
CC1=C(c2ccc3c4cccc5cccc(c6cccc2c63)c54)C(C)=[N+]2C1=C(c1c(C)cc(C)cc1C)c1c(C)c(I)c(C)n1[B-]2(F)F [MB2PI]	0.45 ± 0.06 and 0.45	0.59 ± 0.09	0.49 ± 0.04 and 0.49	0.23 ± 0.04	0.44 ± 0.07	0.33 ± 0.06	not taken up throughout the spheroid as effectively as B2P and B2PI	< 0.3
CC1=C(I)C(C)=[N+]2C1=C(c1ccccc1)c1c(C)c(-c3ccc4c5cccc6cccc(c7cccc3c74)c65)c(C)n1[B-]2(F)F [B2PI]		0.71 ± 0.03	0.54 ± 0.05		0.65 ± 0.05	0.65 ± 0.04	widespread distribution	

Several values for one entry are separate records, joined by “and”; a condition that tells them apart may be missing. Equal values may be shown once.
